Read-outs that look alike come from different tables or passages of the source.
Key:
AA8 cells = experiment: ODC (ornithine decarboxylase activity) assay of cellular drug sensitivity, wild type AA8 cells; format: cell-based, Chinese hamster
Experimental: (§1) The protein determinations were carried out according to the method of Bradford (Anal.Biochem. 72, 248-54, 1976), using lysozyme, triple crystallization and dialysis, as a standard.
Based on the above results discovered by the Inventors, further tests were done on the correlation between the ornithine decarboxylase activity and the resistance to cytotoxic agents or cellular sensitivity. Monolayers of parental AA8 and multidrug resistant T19 cells grown for 4 days at 37° C., were exposed to various concentrations of the antimitotic agent colchinine, for 6 hours, 18 hours and 48 hours and then the activity of ornithine decarboxylase was determined. […] This appears in a clear manner from the attached FIG. 3A. As can be noticed, even a short treatment of only 6 hours with colchinine, was sufficient to detect the sensitivity of AA8 cells and the high level of multi-drug resistance in T19 cells to colchinine.
In the same manner, this assay was tested with various anticancer drugs of various structure and distinct mechanisms of action. The following cytotoxic agents were tested: vinca alkaloids, anthracyclines, epipodophyllotoxins, actinomycin D and antifolates. Typical doseresponse curves of decreasing the ornithine decarboxylase activity versus increasing concentrations of some chemotherapeutic agents, are presented in FIG. 5A through FIG. 5I and in the following Table 1.

T19 cells = experiment: ODC (ornithine decarboxylase activity) assay of drug resistance, multidrug resistant T19 cells; format: cell-based, Chinese hamster; details: incubation time 18 hr; mean of two to four independent experiments
Experimental: as §1
Monolayers of parental AA8 and multidrug resistant T19 cells grown for 4 days at 37° C., were exposed to various concentrations of the antimitotic agent colchinine, for 6 hours, 18 hours and 48 hours and then the activity of ornithine decarboxylase was determined.
In the same manner, this assay was tested with various anticancer drugs of various structure and distinct mechanisms of action. The following cytotoxic agents were tested: vinca alkaloids, anthracyclines, epipodophyllotoxins, actinomycin D and antifolates.

COc1cc2c(c(OC)c1OC)-c1ccc(OC)c(=O)cc1[C@@H](NC(C)=O)CC2 [Colchicine]
IC50 (AA8 cells; incubation time 18 hr, mean of two to four independent experiments, read-out: IC50 (ODC assay) AA8): 404 nM | IC50 (AA8 cells; several independent experiments over 1 year, S.E., read-out: mean IC50 (reduction of 50% in the ornithine decarboxylase)): 404 nM | IC50 (T19 cells): 13800 nM
